Patent publication US7312240B2, “Conformationally constrained paclitaxel analogs and their use as anticancer and anti-Alzheimers agents” (Virginia Tech Intellectual Properties, Inc., priority 2004, dated 2007)
Some entries share one result that the patent states for a list of compounds.

Tested on: A2780 ovarian cancer cell line
Test: Cytotoxicity against A2780 ovarian cancer cell line
Settings: relative to Taxol

## CC(=O)OC1C(=O)C2(C)C(O)CC3OCC34OC(=O)CCCc3ccccc3C(NC(=O)c3ccccc3)C(O)C(=O)OC3CC(O)(C(OC(=O)c5ccccc5)C42)C(C)(C)C1=C3C (stereo not shown) [Compound 14a]
  cytotoxicities exceed those of Taxol by a factor: up to 20
